One compound from paper PMC5618409, “Sequence Analysis, Kinetic Constants, and Anion Inhibition Profile of the Nacrein-Like Protein (CgiNAP2X1) from the Pacific Oyster Magallana gigas (Ex-Crassostrea gigas)” (Marine Drugs, 2017) can be followed below.

The chains behind the UniProt entries cited, without tags or fusion partners. Residues count along the entry.
UniProt A0A8W8INI3, 23-318 limits assumed: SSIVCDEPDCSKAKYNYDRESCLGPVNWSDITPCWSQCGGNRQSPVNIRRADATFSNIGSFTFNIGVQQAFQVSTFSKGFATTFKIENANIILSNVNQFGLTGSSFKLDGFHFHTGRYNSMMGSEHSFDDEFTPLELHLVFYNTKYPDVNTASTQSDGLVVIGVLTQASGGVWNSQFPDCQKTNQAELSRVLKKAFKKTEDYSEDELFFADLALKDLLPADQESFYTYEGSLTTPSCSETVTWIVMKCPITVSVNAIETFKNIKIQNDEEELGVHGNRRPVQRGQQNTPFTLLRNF

The target of this test is CgiNAP2X1 (Magallana gigas, UniProt A0A8W8INI3). The test can be described thus: stopped-flow CO2 hydration assay. Format: biochemical.

The term Ki denotes the dissociation constant of the complex between target and ligand, obtained from inhibition or displacement. The low end stands for higher affinity, the high end for lower affinity. The compound `CC(=O)Nc1nnc(S(N)(=O)=O)s1` [AAZ, 5-acetamido-1,3,4-thiadiazole-2-sulfonamide] showed an inhibition constant Ki of 0.495 µM.
